Some of the results follow.
Molecular target: OsWRKY34 (Oryza sativa, UniProt Q0JBA9 1-250)
Assay: protein-binding microarray (RPBM); PBS, 2% BSA, 51.3 ng/ul salmon testes DNA, 50 uM zinc acetate, 200 nM TF, 25 C, 1 h; high values mean tight binding
Conditions: protein: recombinant; tags: N-terminal polyhistidine and DsRed monomer fusion (pET32a); label: CyDye5-dUTP incorporated in the synthesized complementary strand; 3' TTTTT single-stranded linker to array surface; dsDNA, one strand shown
How it was run: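 Transcription factors, each fused N-terminally to a polyhistidine tag and DsRed, were expressed in E. coli BL21-CodonPlus and purified on Ni–NTA. A custom Agilent array was made double-stranded by primer extension with Cy5-dUTP and blocked with 2% BSA. It was incubated with 200 nM protein in PBS, 2% BSA, salmon testes DNA and 50 µM zinc acetate at 25 °C for 1 h, then washed. The binding signal is per-feature fluorescence intensity (arbitrary units) read on an Axon 4000B scanner.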

Protein sequences, listed by entry. Tags and fused reporters are not part of them.
UniProt Q0JBA9, entry or part of it: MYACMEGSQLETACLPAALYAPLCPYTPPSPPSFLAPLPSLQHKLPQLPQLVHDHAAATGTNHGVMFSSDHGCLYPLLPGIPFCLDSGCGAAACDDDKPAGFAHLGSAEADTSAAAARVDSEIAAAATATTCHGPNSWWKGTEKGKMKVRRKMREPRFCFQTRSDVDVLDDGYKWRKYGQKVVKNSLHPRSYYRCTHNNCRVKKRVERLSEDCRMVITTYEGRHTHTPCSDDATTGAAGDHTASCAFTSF

First: CATGTAAGTATGGGCCGCCCGGATCTCGCATCTCCTCTTACGGAGTCACCTAGTGCAG
Second: ATGCTGTTTAATATGTGTGGATATATTCTATGTGGTCTGCCGGAGTCACCTAGTGCAG
The binding signal of the first is lower: 8460 fluorescence intensity (a.u.) for the first, 8950 fluorescence intensity (a.u.) for the second.

Compared with “CCCTTTAAACTTTCAACTTTTCCGTTACATTAAATTTTGGCGGAGTCACCTAGTGCAG”, “CGTACCTTCTCTGTTGAATCTCCTGTTCGCTTTTCTGTTACGGAGTCACCTAGTGCAG” is lower in binding signal: 9360 fluorescence intensity (a.u.) for the first, 9160 fluorescence intensity (a.u.) for the second.

Going from “TGTATATATAGGTTCTGTTTGGGGAGAGTTTCTAGTTGCTCGGAGTCACCTAGTGCAG” to “GTCACCATCGCTATCCAAGTAGGTTGTTCCAACATAACCCCGGAGTCACCTAGTGCAG”, the binding signal rises from 8230 fluorescence intensity (a.u.) to 8360 fluorescence intensity (a.u.).

Going from “ACTTGCAACTTTGCTTTGCTCCTACTCAGTGTTCACGGATCGGAGTCACCTAGTGCAG” to “ATTATCCTCTTGTTTTTCAACTGGAATGAACCACCAACAACGGAGTCACCTAGTGCAG”, the binding signal rises from 9630 fluorescence intensity (a.u.) to 9790 fluorescence intensity (a.u.).

Going from “CTCTTCTTTCTCTCTGAGCCCGTGTGTGTTTCTTGGGGCTCGGAGTCACCTAGTGCAG” to “GCCGTTTGCCTTTGTCCATTGAATGCTTTTGTTGTGGTCGCGGAGTCACCTAGTGCAG”, the binding signal falls from 11600 fluorescence intensity (a.u.) to 8280 fluorescence intensity (a.u.).

First: TGCATGCAGATTTGCATCATGTTAAATAAATCAAATTAAACGGAGTCACCTAGTGCAG
Second: ACCCCGTTCCCGTTTCCATTTTCACGCCACCCCACCACCCCGGAGTCACCTAGTGCAG
The binding signal of the first is higher: 13400 fluorescence intensity (a.u.) for the first, 10500 fluorescence intensity (a.u.) for the second.

Compared with “GGCTTCCTACTGCATTCTCTGTCTCATGCAATCTCCATTACGGAGTCACCTAGTGCAG”, “CCCTTCGTTCCCTGCCTACTACGCAACGCACGGCTGCTTTCGGAGTCACCTAGTGCAG” is lower in binding signal: 13300 fluorescence intensity (a.u.) for the first, 8500 fluorescence intensity (a.u.) for the second.

Compared with “TATTTCAATTCTTGCGTTATTCTATTTTTTGTGTTTTTCCCGGAGTCACCTAGTGCAG”, “TGTTGCAGCCTTTTGTGTTGTTCAACTTTATACTAGACAACGGAGTCACCTAGTGCAG” is lower in binding signal: 12700 fluorescence intensity (a.u.) for the first, 9310 fluorescence intensity (a.u.) for the second.

First: CGGCGCGGCTGAGGAGGGGCGGCGGGAGGAAGGGGAAGGACGGAGTCACCTAGTGCAG
Second: TCTCTTCAAGGGACAAGGGTTTATGGGTGGGTGAACAGGTCGGAGTCACCTAGTGCAG
The binding signal of the first is lower: 10700 fluorescence intensity (a.u.) for the first, 13200 fluorescence intensity (a.u.) for the second.

Compared with “AATCCGGACCGTCCATCTTCTATCCTAATCCGTTCTGTCGCGGAGTCACCTAGTGCAG”, “AAATATGATCTTGTACCATCGTTTTAAACTAGTACATCGTCGGAGTCACCTAGTGCAG” is lower in binding signal: 9160 fluorescence intensity (a.u.) for the first, 9060 fluorescence intensity (a.u.) for the second.

First: ATACTTTAATAAAATCATATATTTGTTAACACTTTTATATCGGAGTCACCTAGTGCAG
Second: CTCTCCGGGATGTCCGGTTTCGCCCTGTATTGTTGGCGGGCGGAGTCACCTAGTGCAG
The binding signal of the first is higher: 8440 fluorescence intensity (a.u.) for the first, 8220 fluorescence intensity (a.u.) for the second.

First: CAACCTACTTCTATTAAAAGTTTTACAAGTTACACCCTTACGGAGTCACCTAGTGCAG
Second: TCTGTATGTTACTTGTTTACGGTCTCATGTCCAGCTGTTTCGGAGTCACCTAGTGCAG
The binding signal of the first is lower: 8140 fluorescence intensity (a.u.) for the first, 13000 fluorescence intensity (a.u.) for the second.

Compared with “ACCACCACCACCATCGCTTTCTTCCTCCTCGCCTTCTGCTCGGAGTCACCTAGTGCAG”, “GCAACACTGGATCGCACTGCCGCCGCCGCCGACGCCTCAACGGAGTCACCTAGTGCAG” is higher in binding signal: 8870 fluorescence intensity (a.u.) for the first, 9180 fluorescence intensity (a.u.) for the second.

First: TGCTGTCCGCCTGCCTGCCTACTTTCTCCACTTTTTTCTCCGGAGTCACCTAGTGCAG
Second: GTCCCAGCCGCATGTCACTGCCACTCTGCACTCTTCTCTCCGGAGTCACCTAGTGCAG
The binding signal of the first is lower: 10800 fluorescence intensity (a.u.) for the first, 14200 fluorescence intensity (a.u.) for the second.

Going from “CCGTCACATCATTCTAATTTTAACCAAACTTCTAATTTTACGGAGTCACCTAGTGCAG” to “TCAATCGACCATTCCTATGTTTTTCCTGTGTTTTGTAATCCGGAGTCACCTAGTGCAG”, the binding signal rises from 8280 fluorescence intensity (a.u.) to 8890 fluorescence intensity (a.u.).

Going from “TTCGCCTCTCATCTACCCCGTCGCTCTCACCGTCGCGTTACGGAGTCACCTAGTGCAG” to “GTCAATGTGCACAATATTTCATTTGGTCCTCACCTCAGCCCGGAGTCACCTAGTGCAG”, the binding signal falls from 11000 fluorescence intensity (a.u.) to 8800 fluorescence intensity (a.u.).

First: ATCATCAGTCTGAACTTGACTTGCAACTACCCTGTGTCGTCGGAGTCACCTAGTGCAG
Second: TGGTCCCACCTGTCATACACACATTACGTCTTAGAGTCCGCGGAGTCACCTAGTGCAG
The binding signal of the first is higher: 10400 fluorescence intensity (a.u.) for the first, 8260 fluorescence intensity (a.u.) for the second.

Compared with “TATATACCCGTTTCAAATTTAAATTTGAATTATATCTGATCGGAGTCACCTAGTGCAG”, “ATGATGGGATGTGGAAACTGGAAAGTTGTTTTTATCGAAACGGAGTCACCTAGTGCAG” is lower in binding signal: 8690 fluorescence intensity (a.u.) for the first, 8140 fluorescence intensity (a.u.) for the second.

Going from “ATTTTCTTACTTGTTACCTGAATAAATTACTTCCCCTATGCGGAGTCACCTAGTGCAG” to “GCCAACCAACCTGTCTTCCTTGGACTCGGACCTCTCGTTTCGGAGTCACCTAGTGCAG”, the binding signal falls from 8680 fluorescence intensity (a.u.) to 8080 fluorescence intensity (a.u.).

Compared with “TCGTCGTCGTCGGAATCCCTGGATCAGTTTTCTAGCCTCACGGAGTCACCTAGTGCAG”, “ATGAGCTTTTCTAACCATTTATTCTATTGCTTCTAATTTTCGGAGTCACCTAGTGCAG” is higher in binding signal: 8260 fluorescence intensity (a.u.) for the first, 10400 fluorescence intensity (a.u.) for the second.

Going from “GCTCACTGAATTTTTTGCTATAAATACACCCCGTCTTTTCCGGAGTCACCTAGTGCAG” to “TCGACCGATACTTCGCCGTCGTCGCCGTATATGTCATGTCCGGAGTCACCTAGTGCAG”, the binding signal rises from 8340 fluorescence intensity (a.u.) to 8570 fluorescence intensity (a.u.).

Reference: paper PMC7819943, “Rice protein-binding microarrays: a tool to detect cis-acting elements near promoter regions in rice”
